Assay results taken from US20200040081A1.
These are yes or no findings as the source states them, for the method shown. Some binding calls cover weakened binding; strength is not graded here.

Chains of the proteins cited; added tags and fusions are not shown.
UniProt Q6DKI7: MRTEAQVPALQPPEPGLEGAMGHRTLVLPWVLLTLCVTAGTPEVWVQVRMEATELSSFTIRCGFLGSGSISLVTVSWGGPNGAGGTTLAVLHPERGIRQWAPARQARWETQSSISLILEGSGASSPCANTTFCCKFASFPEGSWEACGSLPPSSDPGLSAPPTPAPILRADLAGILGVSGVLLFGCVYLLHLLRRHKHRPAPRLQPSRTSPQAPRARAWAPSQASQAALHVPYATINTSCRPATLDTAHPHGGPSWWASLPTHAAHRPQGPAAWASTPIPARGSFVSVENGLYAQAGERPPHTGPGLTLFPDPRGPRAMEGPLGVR

Molecular target: human CD112R over-expressed on Jurkat cells (human) (UniProt Q6DKI7)
Experiment: flow cytometry on Jurkat-CD112R OE cells

Row | Binder | binding
1 | Antibody 33 (antibody, V domains shown) VH: QVQLVQSGAEVKKPGSSVKVSCKASGGTFGNYAISWVRQAPGQGLEWMGGIIPIPGIANYAQKFQGRVTITADESTSTAYMELSSLRSEDTAVYYCARDTGRGYTRHFWFDPWGQGTLVTVSS VL: DIQMTQSPSSLSASVGDRVTITCRASQSISSYLNWYQQKPGKAPKLLIYAASSLQSGVPSRFSGSGSGTDFTLTISSLQPEDFATYYCQQSDILYTFGGGTKVEIK | binds
2 | Antibody 34 (antibody, V domains shown) VH: QVQLVQSGAEVKKPGSSVKVSCKASGGTFSSAAISWVRQAPGQGLEWMGGIFPISGHANYAQKFQGRVTITADESTSTAYMELSSLRSEDTAVYYCARDTGRGYTRHFWFDPWGQGTLVTVSS VL: DIQMTQSPSSLSASVGDRVTITCRASQSISSYLNWYQQKPGKAPKLLIYAASSLQSGVPSRFSGSGSGTDFTLTISSLQPEDFATYYCQQSDILYTFGGGTKVEIK | binds
3 | Antibody 35 (antibody, V domains shown) VH: QVQLVQSGAEVKKPGSSVKVSCKASGGTFSSAAISWVRQAPGQGLEWMGNIIPIVGIANYAQKFQGRVTITADESTSTAYMELSSLRSEDTAVYYCARDTGRGYTRHFWFDPWGQGTLVTVSS VL: DIQMTQSPSSLSASVGDRVTITCRASQSISSYLNWYQQKPGKAPKLLIYAASSLQSGVPSRFSGSGSGTDFTLTISSLQPEDFATYYCQQSDILYTFGGGTKVEIK | binds
4 | Antibody 36 (antibody, V domains shown) VH: QVQLVQSGAEVKKPGSSVKVSCKASGGTFATYAISWVRQAPGQGLEWMGGIFPLSGTANYAQKFQGRVTITADESTSTAYMELSSLRSEDTAVYYCARDTGRGYTRHFWFDPWGQGTLVTVSS VL: DIQMTQSPSSLSASVGDRVTITCRASQSISSYLNWYQQKPGKAPKLLIYAASSLQSGVPSRFSGSGSGTDFTLTISSLQPEDFATYYCQQSDILYTFGGGTKVEIK | binds
5 | Antibody 44 (antibody, V domains shown) VH: QVQLVQSGAEVKKPGSSVKVSCKASGGTFDNYYISWVRQAPGQGLEWMGGIFPIFGTANYAQKFQGRVTITADESTSTAYMELSSLRSEDTAVYYCAREVGHYSGSPYYMDVWGKGTTVTVSS VL: DIQMTQSPSTLSASVGDRVTITCRASQSINSWLAWYQQKPGKAPKLLISDASSLESGVPSRFSGSGSGTEFTLTISSLQPDDFATYYCQQVGPYLTFGGGTKVEIK | binds
6 | Antibody 46 (antibody, V domains shown) VH: EVQLVESGGGLVQPGRSLRLSCTASGFTFGDYAMSWFRQAPGKGLEWVGFIGSKAYGGTTEYTASVKGRFTISRDGSKSIAYLQMNSLKTEDTAVYYCARGPRRYTYGMDVWGQGTTVTVSS VL: DIQMTQSPSSLSASVGDRVTITCRASQSISSYLNWYQQKPGKAPKLLIYAASSLQSGVPSRFSGSGSGTDFTLTISSLQPEDFATYYCQQSSTPLTFGGGTKVEIK | binds
7 | Antibody 58 (antibody, V domains shown) VH: EVQLVESGGGLVQPGRSLRLSCTASGFTFGDYAMSWFRQAPGKGLEWVGFIGSKFYGGETEYTASVKGRFTISRDGSKSIAYLQMNSLKTEDTAVYYCARGPRRYTYGMDVWGQGTTVTVSS VL: DIQMTQSPSSLSASVGDRVTITCRASQSISSYLNWYQQKPGKAPKLLIYAASSLQSGVPSRFSGSGSGTDFTLTISSLQPEDFATYYCQQSSTPLTFGGGTKVEIK | binds
8 | Antibody 2 (antibody, V domains shown) VH: EVQLVESGGGLVKPGGSLRLSCAASGFTFSEYTMNWVRQAPGKGLEWVSAIVGSGDSTYYADSVKGRFTISRDNSKNTLYLQMNSLRAEDTAVYYCAKDYSSGDWIDYGMDVWGQGTTVTVSS VL: DIQMTQSPSSLSASVGDRVTITCQASQDISNYLNWYQQKPGKAPKLLIYDASNLATGVPSRFSGSGSGTDFTFTISSLQPEDIATYYCQQFDLLPPTFGGGTKVEIK | binds
9 | Antibody 5 (antibody, V domains shown) VH: EVQLLESGGGLVQPGGSLRLSCAASGFTFSDYAMIWVRQAPGKGLEWVSAISGGGESTYYADSVKGRFTISRDNSKNTLYLQMNSLRAEDTAVYYCAKDYSSGDWIDYGMDVWGQGTTVTVSS VL: DIQMTQSPSSLSASVGDRVTITCQASQDISNYLNWYQQKPGKAPKLLIYDASNLATGVPSRFSGSGSGTDFTFTISSLQPEDIATYYCQQFDLLPPTFGGGTKVEIK | binds
10 | Antibody 15 (antibody, V domains shown) VH: EVQLVESGGGLVQPGRSLRLSCTASGFTFGDVAMSWFRQAPGKGLEWVGYIGSKAYGGETEYTASVKGRFTISRDGSKSIAYLQMNSLKTEDTAVYYCARAGHSYGSIASNWFDPWGQGTLVTVSS VL: DIQMTQSPSSLSASVGDRVTITCRASQSISSYLNWYQQKPGKAPKLLIYGASSLQSGVPSRFSGSGSGTDFTLTISSLQPEDFATYYCQQGFYTPWTFGGGTKVEIK | binds
